Data reported in PMC4275242.
These are yes or no findings as the source states them, for the method shown. Binding seen in cells or lysates may run through a third protein. Some entries that bind do so weakly or less than the wild type. Tags and fused reporters may be left off the sequences shown.

Sequences of proteins named here, by UniProt entry; tags and fusion partners are left off. Residues count along the entry.
UniProt P02545, residues 1-646: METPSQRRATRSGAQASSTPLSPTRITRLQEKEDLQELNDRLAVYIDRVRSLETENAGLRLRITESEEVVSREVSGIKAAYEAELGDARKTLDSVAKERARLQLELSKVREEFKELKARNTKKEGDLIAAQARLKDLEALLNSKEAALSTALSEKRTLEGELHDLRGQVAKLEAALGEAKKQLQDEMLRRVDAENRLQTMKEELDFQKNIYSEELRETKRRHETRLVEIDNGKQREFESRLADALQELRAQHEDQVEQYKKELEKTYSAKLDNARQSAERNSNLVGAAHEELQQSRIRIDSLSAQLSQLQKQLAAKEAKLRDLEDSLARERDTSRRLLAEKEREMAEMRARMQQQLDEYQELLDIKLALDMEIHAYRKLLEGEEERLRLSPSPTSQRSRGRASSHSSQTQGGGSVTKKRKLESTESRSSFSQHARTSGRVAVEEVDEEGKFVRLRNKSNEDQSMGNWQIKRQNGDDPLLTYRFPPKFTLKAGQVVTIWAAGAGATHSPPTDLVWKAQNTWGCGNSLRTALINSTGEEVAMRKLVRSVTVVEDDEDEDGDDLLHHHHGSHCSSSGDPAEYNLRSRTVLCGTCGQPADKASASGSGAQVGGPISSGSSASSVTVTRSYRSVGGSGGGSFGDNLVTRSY

Columns and labels:
YFP-SNX6 [1] = biological target: T1, YFP-SNX6 (UniProt Q9UNH7); experiment: FRET or BRET; acceptor-photobleaching FRET in 4% PFA-fixed U2OS cells cotransfected with pEYFP-SNX6 and pECFP-Lamin A; control pEYFP with pECFP-Lamin A
T1 sequence: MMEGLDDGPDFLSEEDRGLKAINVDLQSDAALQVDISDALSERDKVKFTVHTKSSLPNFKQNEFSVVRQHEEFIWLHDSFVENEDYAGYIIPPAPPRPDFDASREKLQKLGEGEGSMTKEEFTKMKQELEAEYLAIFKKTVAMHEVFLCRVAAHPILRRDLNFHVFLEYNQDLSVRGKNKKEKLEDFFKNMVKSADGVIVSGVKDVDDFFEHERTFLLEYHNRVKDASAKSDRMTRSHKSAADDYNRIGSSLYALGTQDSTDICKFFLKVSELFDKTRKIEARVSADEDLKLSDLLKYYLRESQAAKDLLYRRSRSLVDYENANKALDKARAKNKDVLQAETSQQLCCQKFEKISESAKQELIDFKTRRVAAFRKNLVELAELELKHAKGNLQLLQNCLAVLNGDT

YFP-SNX6 [2] = biological target: T1, YFP-SNX6; experiment: co-IP; lysates of U2OS cells transfected with YFP-SNX6 and HA-lamin A; precipitated with anti-GFP, protein A agarose, washes with 1% NP-40/PBS and TNE (500 mM NaCl), blot with anti-HA
[3] = biological target: T2, GST-SNX6 fusion protein (sorting nexin 6) (UniProt Q9UNH7); experiment: pull-down; purified GST-SNX6 (3 ug) incubated with whole cell extracts (500 ug) in RIPA buffer overnight at 4 C, collected on glutathione-Sepharose 4B, washed three times with RIPA, immunoblot; only the target purified
T2 sequence: T1 sequence

binding (YFP-SNX6 [1])	binding (YFP-SNX6 [2])	binding [3]	Substance
binds			CFP-lamin A (from UniProt P02545 1-646)
	binds	binds	HA-lamin A (from UniProt P02545 1-646)
